In patent CN114409792A:
Results are given in words; binding and its absence hold for the method and conditions named. Some binding calls cover weakened binding; strength is not graded here.

Target: T1, 重组人EphB4蛋白 (human) (UniProt P54760)
T1 sequence (looked up): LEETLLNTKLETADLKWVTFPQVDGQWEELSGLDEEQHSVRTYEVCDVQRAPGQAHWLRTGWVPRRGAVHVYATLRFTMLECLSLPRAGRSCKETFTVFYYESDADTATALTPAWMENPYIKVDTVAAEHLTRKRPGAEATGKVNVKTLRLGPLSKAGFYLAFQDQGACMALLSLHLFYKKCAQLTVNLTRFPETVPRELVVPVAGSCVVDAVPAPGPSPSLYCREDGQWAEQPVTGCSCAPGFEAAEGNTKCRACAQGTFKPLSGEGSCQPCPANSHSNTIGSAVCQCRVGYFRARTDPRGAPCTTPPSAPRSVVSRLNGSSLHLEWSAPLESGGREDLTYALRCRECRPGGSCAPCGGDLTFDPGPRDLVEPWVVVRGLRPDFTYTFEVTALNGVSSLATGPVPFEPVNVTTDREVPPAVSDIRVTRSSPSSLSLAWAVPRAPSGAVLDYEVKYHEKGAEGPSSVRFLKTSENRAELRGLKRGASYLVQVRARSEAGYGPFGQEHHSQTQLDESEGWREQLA
Test: phage display panning and monoclonal phage ELISA on plate-coated recombinant EphB4; positive clone sequenced and expressed

binding: binds
B1: EphB4纳米抗体A65 (VHH)
VHH: QVQLVESGGGLVQAGGSLRLSCAASGRTFSAYVMAWFRQAPGKEREFVAAISRTAVYTTYADSVKGRFTISRDFAKDTVYLQMDSLKPVDTAVYYCAADSAVDYRRTYYSPGDFGSWGQGTQVTVSS
